Results: patent US8084276B2, “Method for identifying a subject at risk of developing heart failure by determining the level of galectin-3 or thrombospondin-2” (Universiteit Maastricht, priority 2003, dated 2011)
At least one structure is not confirmed: it was looked up by name or label, or the drawing left a doubt.

Key:
[1] = test system: HF-related candidate genes; experiment: Macroarray expression of HF susceptibility genes in Ren-2 rat myocardium after angiotensin II blockade; type: in vivo; conditions: Ren-2 rats
[2] = test system: Ren-2 rats; experiment: Hemodynamics, hypertrophy and fibrosis in Ren-2 transgenic rats with and without ARB; type: in vivo, rat
Experimental: Homozygous Ren-2 rats were obtained from the Max-Delbrück-Zentrum für Molekulare Medizin, Berlin, Germany. 30 male Ren-2 rats on a Sprague Dawley (SD) background and 9 age-matched SD rats as controls were studied. Of 30 Ren-2 rats, 8 were sacrificed at 10-weeks of age and 8 were treated with 0.05 mg/kg/day of candesartan, an angiotensin II receptor type I blocker (ARB), from 7-13 weeks of age. Of the remaining 14 untreated Ren-2 rats, 6 were sacrificed at 13 weeks upon the development of clinical signs of heart failure and designated as HF-S rats. The remaining 8 Ren-2 rats were closely monitored and were sacrificed at 17 weeks when clinical signs of failure had not yet appeared. These rats were designated as HF-R rats. Hemodynamic parameters were determined before sacrifice and heart, lung and body weight were measured after the sacrifice. The procedure for care and treatment of animals was approved by the institutional animal care committee. Homozygous Ren-2 rats were obtained from the Max-Delbrück-Zentrum für Molekulare Medizin, Berlin, Germany. We studied 16 male Ren-2 rats and 8 age-matched controls from the non-transgenic background, Sprague Dawley (SD) rats. Of the 16 Ren-2 rats, 8 were treated with 0.05 mg/kg/day of candesartan, an angiotensin II receptor type I blocker (ARB), from 7-13 weeks of age. Within 8 untreated Ren-2 rats, 4 were sacrificed at 13 weeks upon the development of HF. The remaining 4 Ren-2 rats were monitored and were sacrificed at 17 weeks when signs of clinical failure had not appeared. Hemodynamics was taken at 10 weeks and before sacrifice. Heart, lung and body weight were measured after the sacrifice. The procedure for care and treatment of animals was approved by the institutional animal care committee.

CCOc1nc2cccc(C(=O)O)c2n1Cc1ccc(-c2ccccc2-c2nnn[nH]2)cc1 [candesartan]
overexpression of all HF-related candidate genes ([1]; sub-pressor dose of candesartan from 7 to 13 weeks of age): prevented
galectin-3 gene expression ([1]; subpressor dose of candesartan from 7 to 13 weeks): prevented
Overt HF with pleural effusion and elevated left ventricular end-diastolic pressure (LVEDP) ([2]; Ren-2 rats treated with ARB vs HF-S rats): not present
areas of high fibrosis in myocardium (histology) ([2]; Ren-2 rats treated with ARB, immunohistochemistry sections): not seen
development of cardiac hypertrophy and failure ([2]; Ren-2 rats, sub-pressor dose of candesartan from 7 to 13 weeks of age): completely prevented
LVH and myocardial collagen content ([2]; Ren-2 rats, computer-assisted densitometry, comparable to normotensive background strains): normalized
increase in LV (hypertrophied ventricles) ([2]; candesartan treated Ren-2 rats vs placebo-treated): no increase
